Test [1] has as its target GST-CDK4EE (CDK4 with G43-G47 replaced with Glu-Glu) (human) (UniProt P11802). Kind of test: tandem affinity co-purification.
In test [2] the target is MBP-AMBRA1^WD40 (residues M1-N204 directly fused to S853-G1044), wild type (human) (UniProt Q9C0C7). Kind of test: pull-down.

Sequences of proteins named here, by UniProt entry; tags and fusion partners are left off. A change or cut given only in a name is not applied to a line headed by its entry. A line that says so, or that is headed by a name, gives the form on record, which may keep a tag or linker. Residues count along the entry.
GST-CDK4EE (CDK4 with G43-G47 replaced with Glu-Glu) (P11802, form named): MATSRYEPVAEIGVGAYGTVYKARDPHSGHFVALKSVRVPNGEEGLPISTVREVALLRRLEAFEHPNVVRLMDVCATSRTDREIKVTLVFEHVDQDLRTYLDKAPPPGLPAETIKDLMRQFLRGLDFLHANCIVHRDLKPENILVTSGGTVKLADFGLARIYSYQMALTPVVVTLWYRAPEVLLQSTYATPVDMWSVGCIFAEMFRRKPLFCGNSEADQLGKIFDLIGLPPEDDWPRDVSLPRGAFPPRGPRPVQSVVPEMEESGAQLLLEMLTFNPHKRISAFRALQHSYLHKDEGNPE
MBP-AMBRA1^WD40 (residues M1-N204 directly fused to S853-G1044), wild type (Q9C0C7, form named): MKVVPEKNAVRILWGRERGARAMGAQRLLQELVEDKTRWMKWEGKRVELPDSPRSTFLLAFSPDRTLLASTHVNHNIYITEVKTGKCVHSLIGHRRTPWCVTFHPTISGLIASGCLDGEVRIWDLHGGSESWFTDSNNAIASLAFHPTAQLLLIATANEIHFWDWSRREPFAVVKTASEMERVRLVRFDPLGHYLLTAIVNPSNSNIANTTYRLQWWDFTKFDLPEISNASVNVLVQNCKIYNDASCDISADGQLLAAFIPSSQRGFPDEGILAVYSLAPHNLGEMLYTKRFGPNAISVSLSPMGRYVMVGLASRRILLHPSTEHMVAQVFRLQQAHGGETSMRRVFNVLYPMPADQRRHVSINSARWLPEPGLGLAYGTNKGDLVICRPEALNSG
UniProt P24385: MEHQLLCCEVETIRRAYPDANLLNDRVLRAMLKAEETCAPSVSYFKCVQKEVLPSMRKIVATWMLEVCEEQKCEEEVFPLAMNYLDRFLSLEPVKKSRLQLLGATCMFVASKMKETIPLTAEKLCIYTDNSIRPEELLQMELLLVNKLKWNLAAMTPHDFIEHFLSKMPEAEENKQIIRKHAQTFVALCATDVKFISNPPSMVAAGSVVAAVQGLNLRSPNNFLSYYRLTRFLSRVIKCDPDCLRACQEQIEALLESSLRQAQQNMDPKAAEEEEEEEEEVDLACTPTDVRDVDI
UniProt P30279: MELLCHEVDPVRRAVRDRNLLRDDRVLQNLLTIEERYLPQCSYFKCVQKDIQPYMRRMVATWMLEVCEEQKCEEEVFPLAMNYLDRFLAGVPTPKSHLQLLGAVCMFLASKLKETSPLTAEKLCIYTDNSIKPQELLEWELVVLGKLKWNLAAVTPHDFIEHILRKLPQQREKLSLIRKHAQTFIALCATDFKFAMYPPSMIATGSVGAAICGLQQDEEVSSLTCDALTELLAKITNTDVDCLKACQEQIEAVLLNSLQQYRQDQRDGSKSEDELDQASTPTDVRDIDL

No constants are given. Whether binding was seen depends on the method and setting. For some assays here: Binding seen in cells or lysates may run through a third protein. Some entries that bind do so weakly or less than the wild type.

As for “TSF-cyclin D1 T286A (from UniProt P24385 1-295)”, in test [1], the binding entry is given as “binds”.

As for “TSF-cyclin D2, full length (from UniProt P30279 1-289)”, in test [2], the binding result is listed as “binds”.

In the case of “TSF-cyclin D3, full length (from UniProt P30281 1-292)”, the binding entry in test [1] and in test [2] was “binds” in each case.

B1: TSF-cyclin D3 T283A (protein, UniProt P30281 1-292)
chain: MELLCCEGTRHAPRAGPDPRLLGDQRVLQSLLRLEERYVPRASYFQCVQREIKPHMRKMLAYWMLEVCEEQRCEEEVFPLAMNYLDRYLSCVPTRKAQLQLLGAVCMLLASKLRETTPLTIEKLCIYTDHAVSPRQLRDWEVLVLGKLKWDLAAVIAHDFLAFILHRLSLPRDRQALVKKHAQTFLALCATDYTFAMYPPSMIATGSIGAAVQGLGACSMSGDELTELLAGITGTEVDCLRACQEQIEAALRESLREASQTSSSPAPKAPRGSSSQGPSQTSAPTDVTAIHL
Regarding B1, the binding entry in test [1] was “binds”.
